{"source": "PubChem BioAssay AID504764 (Drosophila RNAi Screening Center, 2011)", "screen": "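Genome-wide screen for regulators of Notch-driven gene expression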 (primary screen)", "system": "Drosophila Kc167 cells", "knock-down reagent": "long dsRNA against Drosophila genes", "time to read-out": "about 5 days (4 days dsRNA, then 24 h after transfection)", "conditions": "transfection of constitutively active membrane-tethered Notch lacking the extracellular domain, read 24 h later", "measured": "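Firefly luciferase from an E(spl)m3 reporter with active Notch, plus control-promoter and uninduced reporter wells for normalisation; unnormalised counts, duplicate wells a and b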", "scale": "induced reporter light, run 1, well a and induced reporter light, run 1, well b: higher = more light from the Notch target reporter with active Notch; control promoter light, run 1, well a and control promoter light, run 1, well b: higher = more light from the viral control promoter (cell number, transfection, viability); uninduced reporter light, run 1, well a: higher = more light from the Notch target reporter without active Notch", "hit rule": "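Hit if the duplicate-averaged log2 ratio of induced to control-promoter light gives a plate-wise z beyond ±2, or induced to uninduced beyond ±1.8; weak-control or discordant-duplicate wells dropped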", "meaning of the calls": "active = modifier hit (raised or lowered Notch signal); inactive = not a hit", "note": "The screen tested about 22,000 reagents; this is a random part of those with a known target gene and a result. Over the whole deposit, 403 (1.9%) were called active. 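Unnormalised raw counts per well; ratio z-scores behind the hit calls and whether each hit raises or lowers signal are not deposited.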 A number with no mark means an inactive call. Names joined by + are all predicted targets of the reagent. No sequences are given here. Not given: the amount of reagent."}
{"target gene": "CG42376 + cin", "DRSC id": "DRSC18752", "induced reporter light, run 1, well a": 58540, "induced reporter light, run 1, well b": 80250, "control promoter light, run 1, well a": 70390, "control promoter light, run 1, well b": 85620, "uninduced reporter light, run 1, well a": 5015}
{"target gene": "naz (nazgul)", "DRSC id": "DRSC14790", "induced reporter light, run 1, well a": 1.79e5, "induced reporter light, run 1, well b": 1.78e5, "control promoter light, run 1, well a": 1.88e5, "control promoter light, run 1, well b": 1.74e5, "uninduced reporter light, run 1, well a": 12155}
{"target gene": "naz (nazgul)", "DRSC id": "DRSC16199", "induced reporter light, run 1, well a": 1.53e5, "induced reporter light, run 1, well b": 1.61e5, "control promoter light, run 1, well a": 1.65e5, "control promoter light, run 1, well b": 1.55e5, "uninduced reporter light, run 1, well a": 10660}
{"target gene": "AsnRS-m (Asparaginyl-tRNA synthetase, mitochondrial)", "DRSC id": "DRSC07010", "induced reporter light, run 1, well a": 1.08e5, "induced reporter light, run 1, well b": 1.10e5, "control promoter light, run 1, well a": 1.08e5, "control promoter light, run 1, well b": 1.24e5, "uninduced reporter light, run 1, well a": 9142}
{"target gene": "trem (trade embargo)", "DRSC id": "DRSC15575", "induced reporter light, run 1, well a": 1.60e5, "induced reporter light, run 1, well b": 1.47e5, "control promoter light, run 1, well a": 2.11e5, "control promoter light, run 1, well b": 2.19e5, "uninduced reporter light, run 1, well a": 11305}
{"target gene": "HP6 (Heterochromatin protein 6)", "DRSC id": "DRSC00471", "induced reporter light, run 1, well a": 94560, "induced reporter light, run 1, well b": 77895, "control promoter light, run 1, well a": 1.17e5, "control promoter light, run 1, well b": 87855, "uninduced reporter light, run 1, well a": 7315}
{"target gene": "CG5805", "DRSC id": "DRSC15878", "induced reporter light, run 1, well a": 2.10e5, "induced reporter light, run 1, well b": 1.87e5, "control promoter light, run 1, well a": 2.45e5, "control promoter light, run 1, well b": 2.42e5, "uninduced reporter light, run 1, well a": 16515}
{"target gene": "Cyp6a20 (Cytochrome P450 6a20)", "DRSC id": "DRSC07380", "induced reporter light, run 1, well a": 1.56e5, "induced reporter light, run 1, well b": 1.58e5, "control promoter light, run 1, well a": 1.70e5, "control promoter light, run 1, well b": 1.71e5, "uninduced reporter light, run 1, well a": 11270}
{"target gene": "peb (pebbled)", "DRSC id": "DRSC18817", "induced reporter light, run 1, well a": 63300, "induced reporter light, run 1, well b": 53175, "control promoter light, run 1, well a": 82455, "control promoter light, run 1, well b": 98555, "uninduced reporter light, run 1, well a": 8520}
{"target gene": "CG13258", "DRSC id": "DRSC02244", "induced reporter light, run 1, well a": 1.49e5, "induced reporter light, run 1, well b": 1.39e5, "control promoter light, run 1, well a": 1.45e5, "control promoter light, run 1, well b": 1.91e5, "uninduced reporter light, run 1, well a": 13395}
{"target gene": "att-ORFB + DPCoAC", "DRSC id": "DRSC15556", "induced reporter light, run 1, well a": 1.43e5, "induced reporter light, run 1, well b": 1.42e5, "control promoter light, run 1, well a": 1.78e5, "control promoter light, run 1, well b": 1.87e5, "uninduced reporter light, run 1, well a": 11640}
{"target gene": "dlp (dally-like)", "DRSC id": "DRSC10281", "induced reporter light, run 1, well a": 14030, "induced reporter light, run 1, well b": 17575, "control promoter light, run 1, well a": 7488, "control promoter light, run 1, well b": 8685, "uninduced reporter light, run 1, well a": 3880}
{"target gene": "dlp (dally-like)", "DRSC id": "DRSC10472", "induced reporter light, run 1, well a": 89660, "induced reporter light, run 1, well b": 91820, "control promoter light, run 1, well a": 1.02e5, "control promoter light, run 1, well b": 83095, "uninduced reporter light, run 1, well a": 7335}
